# The full ranking holds about 33,000 sequences; the median of “E-score (-0.5 to 0.5)” is about -0.016, and the highest 2% start at about 0.3. The list shows a part of the results.
# Molecular target: T1, Yer184c (UniProt P39961)
# T1 sequence: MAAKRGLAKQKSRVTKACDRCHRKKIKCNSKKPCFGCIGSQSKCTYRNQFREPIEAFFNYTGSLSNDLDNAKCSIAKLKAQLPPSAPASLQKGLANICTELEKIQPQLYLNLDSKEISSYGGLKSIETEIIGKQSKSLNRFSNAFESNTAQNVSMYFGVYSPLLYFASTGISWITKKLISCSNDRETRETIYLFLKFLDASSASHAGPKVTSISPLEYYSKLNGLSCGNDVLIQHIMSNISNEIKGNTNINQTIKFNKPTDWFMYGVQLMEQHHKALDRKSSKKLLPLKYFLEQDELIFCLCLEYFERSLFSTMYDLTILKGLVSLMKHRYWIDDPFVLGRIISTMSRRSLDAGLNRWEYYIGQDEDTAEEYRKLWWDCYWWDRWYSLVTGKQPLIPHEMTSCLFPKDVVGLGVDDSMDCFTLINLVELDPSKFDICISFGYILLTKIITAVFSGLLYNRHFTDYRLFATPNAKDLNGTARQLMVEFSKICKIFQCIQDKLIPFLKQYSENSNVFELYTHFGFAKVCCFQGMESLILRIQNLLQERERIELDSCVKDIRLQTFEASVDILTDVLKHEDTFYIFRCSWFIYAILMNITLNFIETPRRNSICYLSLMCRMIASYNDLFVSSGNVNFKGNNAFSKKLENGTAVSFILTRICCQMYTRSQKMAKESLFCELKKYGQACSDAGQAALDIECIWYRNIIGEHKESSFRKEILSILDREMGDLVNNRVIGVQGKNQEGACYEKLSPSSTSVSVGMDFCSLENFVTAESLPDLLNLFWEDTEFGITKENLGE
# Experiment: PBM E-score (8-mer binding enrichment) (E-score (-0.5 to 0.5)); higher = stronger / more preferred TF binding
# Conditions: protein concentration: 100 nM; construct: GST-full length
# Method in brief: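 GST-tagged yeast TFs (full-length or DNA-binding domain) were made by PURExpress in vitro transcription/translation and applied at about 100-200 nM to universal all-10-mer Agilent arrays. The arrays were made double-stranded by primer extension, on fresh or once-stripped slides. Bound protein was detected with fluorescent anti-GST, and scans were normalised with masliner. Each ungapped eight-base word, pooled with its reverse complement, received an E-score (modified Wilcoxon-Mann-Whitney statistic) from the Universal PBM Analysis Suite.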
row,Sequence,PBM E-score
1,AATTTTGA,0.209
2,GATCAGTA,0.155
3,CCAAGGAA,-0.0117
4,CCCGTCGA,-0.0148
5,GATAAAAA,0.29
6,AAAGTGTC,-0.0981
7,ACTATGGA,-0.144
8,AGAGCTCA,-0.142
9,ACCTCATA,-0.0137
10,ATGTGTAG,-0.0726
11,CTCGTGTA,0.0138
12,GCGATCGC,-0.0844
13,GGAGGTAA,-0.0289
14,CAGGTGAC,-0.205
15,CGGTCCTC,-0.0287
16,CGAAACTA,0.0737
17,GGTCATGA,0.00444
18,AGTGCAAT,-0.102
19,CCTCGCGC,-0.122
20,CCTAGACA,-0.14
21,CTCATAAA,0.192
22,ATACCTGA,0.0252
23,CGATTTGC,0.123
24,ATCTAGAG,-0.151
25,ATCTATGA,0.0171

row,Sequence,PBM E-score
1,AGGCCCCG,-0.217
2,GGGACAGA,-0.19
3,GATTACAA,0.169
4,ATTGGTCG,0.04
5,CGCGACGC,-0.105
6,TCAAGCGA,-0.215
7,CCGGCGCA,0.277
8,CAAGACAC,0.0985
9,CGTACTCA,-0.0942
10,GGCTTGAC,-0.00879
11,ACAATGAA,0.159
12,CGCTGTGA,-0.0939
13,AGCCGGTA,0.306
14,CCCCCCAG,-0.449
15,ATTAATTG,0.197
16,ACGTTCCC,-0.194
17,CACACCTC,-0.168
18,CCAATAGC,-0.192
19,CTGGACAG,-0.0251
20,ATGGGAAG,-0.202
21,CGTCCAAA,0.0987
22,AACTTGTG,0.095
23,AGAATCTA,0.0901
24,AAACGATA,0.136
25,ATTTTAGG,0.105

# Another view of some results above.
row	Sequence	PBM E-score
23	AGAATCTA	0.0901
24	AAACGATA	0.136
25	ATTTTAGG	0.105

# The listing continues:

row,Sequence,PBM E-score
1,ATAGCGTA,-0.0169
2,CTTGCAAG,0.246
3,TACCCTGA,-0.212
4,ATATGTTA,-0.0145
5,CTGACGAC,-0.135
6,ACAGCATC,-0.133
7,AATGAGGA,-0.235
8,ACACGCCG,0.181
9,AAGTACTG,0.039
10,GTGCCCGA,-0.0178
11,AAACACAA,0.188
12,AGACGCGA,0.0138
13,CTTGCGTA,-0.095
14,ACATCCCG,0.213
15,AACGGGTA,0.149
16,CGGAGGAC,0.0152
17,AAAAGTAG,0.0569
18,CACCGACA,0.0307
19,AGAGTGAG,-0.128
20,ACTTGTCA,0.0708
21,AGCAAGAC,-0.0598
22,AGCACAAG,-0.0401
23,CGCGCCCG,-0.00599
24,ACGCTCAA,-0.0415
25,CGCAAATC,-0.0243

row,Sequence,PBM E-score
1,AAGCCTGT,-0.0651
2,CGCCGCAC,-0.0179
3,CGACTGTC,-0.209
4,CTGCCACA,-0.085
5,GTTACCTA,-0.0188
6,CAGGCTAA,-0.216
7,CGAAAACA,0.134
8,AGATCCGA,0.237
9,ATTTCCGC,0.307
10,CGAGAGCA,0.0746
11,AATTTCCC,0.0065
12,AGACCGGA,0.198
13,ATCCCCTA,-0.312
14,AACCGGTC,0.229
15,CTTGAAAA,0.0878
16,CGTTGAAA,0.121
17,ACGAGATG,-0.0451
18,GCTCTCTA,-0.149
19,GCGTAAAA,0.108
20,ATGCGATG,-0.217
21,TCACCAAA,0.0454
22,CTTTTAGC,-0.0509
23,CATTAGCC,-0.197
24,AGCCGACC,-0.0181
25,CCACTGAA,0.107

row,Sequence,PBM E-score
1,CTCTAAAC,-0.0559
2,GCGAGCAA,-0.08
3,GGATGATA,-0.0511
4,AACTCTAA,0.178
5,CTGGCCAG,-0.355
6,CGGCAGAG,0.0593
7,AAGTCATG,0.0848
8,CACTGAGA,-0.221
9,AAATGAGA,-0.018
10,ACACATTC,0.0278
11,AGAGGGAA,-0.288
12,CCGCAACC,0.129
13,AATCGTTG,0.0539
14,ATCCCGAA,0.287
15,TAAATTGA,0.119
16,AATGTTCT,0.0086
17,AGAGCATG,-0.0963
18,CGGTACTA,-0.0015
19,TGCATACA,0.0647
20,CTACTAAG,0.0176
21,GTAGTCTA,-0.0114
22,AAATAGGT,-0.086
23,GCGGACGA,0.243
24,ACCTGAAG,-0.0794
25,AGCGCGTA,0.0467

# As entered above.
# Entry of ACACATTC under PBM E-score: 0.0278
# Entry of AATCGTTG under PBM E-score: 0.0539

# Carrying on.

row,Sequence,PBM E-score
1,AGTAAACT,0.119
2,GTAATTAA,0.143
3,CTAACGTA,0.0661
4,GGTATCTA,0.18
5,AGAGTGAC,-0.215
6,ACGCTCTC,-0.162
7,TCATATGA,0.301
8,GATTATGC,0.0503
9,ACGGCAAC,0.126
10,GATATAAA,0.13
11,AAGAACCT,-0.0869
12,CCCGAGCG,0.252
13,CGTTGAGA,0.0569
14,AGGCTTTC,-0.0704
15,ACAACTTG,-0.0904
16,CCTAATGA,-0.00493
17,CTATGTCA,0.0564
18,ACTATTGG,-0.114
19,ACCCTTGC,-0.269
20,ACACCACA,0.00025
21,CAGGTCAG,-0.0812
22,GCAGGTCA,-0.194
23,AACCGGGT,0.202
24,ACACAGAA,0.115
25,AAGCAGCC,-0.0367

row,Sequence,PBM E-score
1,GGAAACGA,0.0401
2,TCCGCCGA,0.316
3,AATGCCAT,0.055
4,AACCGGTT,0.359
5,AGAATTAA,0.119
6,AACAGAAC,0.163
7,CACCTTAC,-0.119
8,TAGAAGGA,-0.197
9,AGGCTCTG,-0.229
10,ACACATGA,-0.161
11,ATAGCGTG,-0.151
12,ATTGATTC,0.249
13,AGGATAGC,0.093
14,TCAACTGA,-0.106
15,AAATGGTG,0.123
16,ACCGTCTG,-0.124
17,TATCCAGA,0.132
18,CCGGGCCG,0.429
19,ACTGTATC,-0.113
20,AACGCACC,-0.0986
21,GGAAATAA,0.319
22,AAAAGGGG,-0.131

# Pulled one by one from the entries so far (2):
row,Sequence,PBM E-score
14,AGGCTTTC,-0.0704
1,GGAAACGA,0.0401
